We go through 39 compounds from PubChem BioAssay AID2685 (National Center for Advancing Translational Sciences (NCATS), 2010).

This is one part of the list. The main result of the screen is listed elsewhere. These columns were measured beside it and carry no call. Compounds called inactive in the main read-out are mostly missing here. The note in brackets gives the kind of curve behind each potency; many fits are weak.

The nature of this assay: qHTS Assay for Lipid Storage Modulators in Drosophila S3 Cells.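 For cell number change: cells counted by Cell Tracker Red CMTPX staining in the red channel.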 To be noted: BODIPY lipid droplet fluorescence, 18-24 h; for cell number change: measured here: cell count max response, cells fed with added oleic acid. Summed up:
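Drosophila S3 cells got compounds at several concentrations plus oleic acid (400 uM solution). Laser-scanning cytometry with 488 nm excitation read lipid droplets at 500-530 nm and cells at 575-640 nm. Percent activity was relative to 20 uM Triacsin C.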

The mark [1] stands for this setting: measured here: cell number channel AC50, cells fed with added oleic acid.
Setting [2] is: measured here: lipid fluorescence (Fed channel) AC50, cells fed with added oleic acid.

Consider `CCc1ccc(NC(=O)N(CCN2CCOCC2)Cc2ccc3c(c2)CCCN3CC)cc1`, for which the cell number change turned out to be 127%. Also, the AC50 – broadly, the concentration at which the activity in the assay is half-maximal – under setting [1] is 0.082 µM [rising, full curve]. For the same compound, under setting [2], the AC50 is 23.1 µM [rising, partial curve].
As to `O=C(Nc1nnc(Cc2ccccc2)s1)Nc1ccccc1F`, the cell number change is -4.46%. The AC50 under setting [1] is 6.51 µM [falling, single point].
Turning to `O=C(/C=C/c1ccc([N+](=O)[O-])cc1)Oc1ccc(/C=N/NC(=O)c2ccncc2)cc1`, the cell number change is -12.1%. Besides, the AC50 under setting [2] is 5.8 µM [rising, single point].
For `S=C(NCC1CCCO1)NC1CC1` (centres undefined), the cell number change was -12.7%. Besides, the AC50 under setting [2] was 29.1 µM [falling, single point].
Take `Cc1ccc(-c2csc(NC(=O)c3ccc([N+](=O)[O-])o3)n2)cc1`: the cell number change came out at 12.2%. Further, the AC50 under setting [2] was 0.58 µM [falling, single point].
Consider `COc1ccc(OC)c(-c2cc(C(=O)Nc3c(C)nn(Cc4ccccc4C)c3C)no2)c1`, for which the cell number change is -3.91%. Under setting [2], the AC50 was 0.58 µM [rising, full curve, poor fit].
Take `COc1ccc2c(c1)C=C(C(=O)OCc1cccnc1)CO2`: the cell number change was -4.76%. The AC50 under setting [2] is 0.116 µM [falling, full curve, poor fit].
In the case of `COc1ccccc1CNC(=O)c1c(-c2ccccc2Cl)noc1C`, the cell number change turned out to be 4.72%. For the same compound, the concentration at half-maximal activity (AC50) under setting [2] is 11.6 µM [falling, partial curve].
On to `COC(=O)CN1C(=O)[C@H]2[C@@H](c3ccc(C)o3)N3C(=O)CN(CC4CC4)C(=O)[C@@]3(C)[C@H]2C1=O`, for which the cell number change was 30.7%. The AC50 under setting [1] was 3.66 µM [rising, partial curve, poor fit]. Moreover, the AC50 under setting [2] was 6.51 µM [falling, single point].
As to `CCn1cc(-c2cc(C(=O)O)c3ccccc3n2)cn1`, the cell number change turned out to be 8.35%. Besides, the AC50 under setting [1] was 0.517 µM [falling, single point].
Take `O=C(CCC(=O)N1CCN(c2ccccn2)CC1)Nc1nnc(C2CCCCC2)s1`: the cell number change is -3.39%. The AC50 under setting [2] was 0.0058 µM [falling, full curve, poor fit].
As to `COC(=O)CSc1nnc(-c2ccc(OC)c(OC)c2)o1`, the cell number change amounted to 24.6%.
`Cc1cc(=O)oc2c(C(=O)c3ccccc3)c(OCC(N)=O)ccc12`: the cell number change stood at 8.45%. The AC50 under setting [1] is 2.59 µM [rising, partial curve, poor fit]. The AC50 under setting [2] was 2.59 µM [rising, partial curve].
On to `CC1=CC(C)(C)Nc2ccc(OC(=O)c3cccnc3)cc21`, for which the cell number change stood at 3.93%. Moreover, the concentration at half-maximal activity (AC50) under setting [1] is 6.51 µM [falling, single point]. Moreover, under setting [2], the AC50 is 4.61 µM [falling, single point].
On to `C(=N\NC1=Nc2cccc3cccc1c23)/c1ccccc1`, for which the cell number change was found to be 1.73%. Further, the AC50 under setting [2] is 3.26 µM [falling, partial curve, poor fit].
As for `CCOC(=O)c1cccc(NC(=O)CCc2nnc3ccc(N4CCN(C)CC4)nn23)c1`, the cell number change is 21.4%. Moreover, the AC50 under setting [2] is 1.64 µM [rising, partial curve].
With `CCOC(=O)c1c(NC(=O)CNCC(O)CO)sc(C)c1C` (centres undefined), the cell number change is -1.52%. Further, under setting [2], the AC50 is 29.1 µM [rising, single point].
Regarding `O=C1Nc2ccccc2OC1CC(=O)N1CCN(c2cccc(C(F)(F)F)c2)CC1` (centres undefined), the cell number change was -3.21%.
Take `COc1ccc2c(c1)[nH]c1c(=O)n(/N=C/C3C(C)C=C(C)CC3C)c(=O)[nH]c12` (centres undefined): the cell number change was -58.5%. Further, the AC50 under setting [1] is 3.26 µM [falling, full curve].
Regarding `Cc1cc(=O)nc2c3ccccc3n(CC(=O)NCCCN3CCOCC3)n12`, the cell number change was -39.5%. In addition, under setting [1], the AC50 was 0.146 µM [falling, full curve].
As to `COC(=O)c1ccc(-n2nnnc2SCc2ccccc2OC)cc1`, the cell number change was -22.2%. For the same compound, the AC50 under setting [2] is 2.06 µM [falling, partial curve, poor fit].
On to `CCCN1CCN(CCCNC(=O)C(CC)n2nc(C)n3c(cc4occc43)c2=O)CC1` (centres undefined), for which the cell number change turned out to be 8.78%. The AC50 under setting [2] is 29.1 µM [rising, single point].
As for `CCOC(=O)c1nn(-c2cccc(OC)c2)c(-c2ccccc2)c1C(=O)c1ccccc1`, the cell number change is -2.01%. Besides, the AC50 under setting [2] is 29.1 µM [rising, partial curve, poor fit].
For the compound `COc1ccc(C)cc1NCc1ccc(OC)c(C)c1OC`, the cell number change was -6.74%. Also, the half-maximal activity concentration (AC50) under setting [2] was 29.1 µM [falling, single point].
Turning to `Nc1ccc(Oc2ccc3c(c2)C(=O)NC3=O)cc1`, the cell number change is -9.85%.
For the compound `CCN(CC)S(=O)(=O)c1cccc(NC(=O)C2SC(=Nc3ccc(C)cc3C)C(C(=O)NCC3CCCO3)=C2N)c1` (centres undefined), the cell number change was 29.5%. The AC50 under setting [2] is 6.51 µM [falling, single point].
With `O=C(COC(=O)c1ccc(O)cc1)NCc1ccc2c(c1)OCO2`, the cell number change worked out at 32.7%.
Take `CS(=O)(=O)N(CCc1ccccc1)CC(=O)N1CCc2ccccc2C1`: the cell number change was -1.16%. The AC50 under setting [2] is 23.1 µM [rising, single point].
For `CSc1ccc(S(=O)(=O)N2CCC(C(=O)NCc3cccnc3)CC2)cc1`, the cell number change was -14.5%.
Regarding `CCN1CCN(Cc2nnc(-c3ccc(C)cc3)o2)CC1`, the cell number change amounted to 9.93%. The AC50 under setting [2] is 29.1 µM [rising, single point].
`Cc1ccc(SCC(=O)OCC(=O)NC(C)c2ccc(F)cc2)cc1` (centres undefined): the cell number change is -4.54%. Besides, the AC50 under setting [2] is 0.651 µM [rising, full curve].
For `CC(=O)n1cc(/C=N/NC(=O)c2ccccc2Cl)c2ccccc21`, the cell number change was 3.34%. Further, the AC50 under setting [2] is 6.51 µM [rising, single point].
In the case of `COC(=O)c1cc(=O)c2cccc(OC)c2[nH]1`, the cell number change is -48.5%. Further, the AC50 under setting [1] is 29.1 µM [falling, single point]. The AC50 under setting [2] was 29.1 µM [falling, single point].
With `O=C(O)COc1ccc(Br)cc1C(c1c(C(=O)O)[nH]c2ccccc12)c1c(C(=O)O)[nH]c2ccccc12`, the cell number change is -10.6%.
As for `O=C1C(=O)c2ccccc2C(O)=C1c1ccccc1F`, the cell number change is -12.5%. The AC50 under setting [2] is 7.31 µM [falling, single point].
For the compound `O=CN1CCN(C(C(=O)NC2CCCCC2)c2cc3c(cc2[N+](=O)[O-])OCO3)CC1` (centres undefined), the AC50 is, setting by setting: under setting [1], 2.31 µM [rising, partial curve]; under setting [2], 2.31 µM [rising, partial curve].
On to `COc1ccc(S(=O)(=O)N2CCNC(=O)C2)cc1Br`, for which the AC50 under setting [2] is 14.6 µM [rising, partial curve].
Take `CCCn1nnnc1SCC(=O)N1CCCCC1`: the cell number change is -6.41%.
As for `COc1ccccc1NC(=O)c1c(Nc2ccccc2C)sc(C(=O)Nc2cccc(Cl)c2)c1N`, under setting [2], the AC50 is 5.8 µM [falling, partial curve, poor fit].
